According to article PMC12320502:
Results are given in words; binding and its absence hold for the method and conditions named. In cells and extracts the contact can be indirect. Binding calls can cover weak binding; strength is not graded here.

The chains behind the UniProt entries cited, without tags or fusion partners. Where a name states a change or a piece, a line headed by the entry shows the natural chain unless it says otherwise. Residues count along the entry.
UniProt Q8IVN8: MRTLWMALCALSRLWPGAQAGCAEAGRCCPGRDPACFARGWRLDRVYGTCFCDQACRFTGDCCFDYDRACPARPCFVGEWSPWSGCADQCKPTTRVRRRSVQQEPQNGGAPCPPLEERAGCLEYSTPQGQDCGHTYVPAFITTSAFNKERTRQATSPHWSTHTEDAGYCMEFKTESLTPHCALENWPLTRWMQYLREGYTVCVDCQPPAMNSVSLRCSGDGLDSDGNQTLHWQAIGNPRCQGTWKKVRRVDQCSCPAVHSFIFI
UniProt P11021, residues 19-654: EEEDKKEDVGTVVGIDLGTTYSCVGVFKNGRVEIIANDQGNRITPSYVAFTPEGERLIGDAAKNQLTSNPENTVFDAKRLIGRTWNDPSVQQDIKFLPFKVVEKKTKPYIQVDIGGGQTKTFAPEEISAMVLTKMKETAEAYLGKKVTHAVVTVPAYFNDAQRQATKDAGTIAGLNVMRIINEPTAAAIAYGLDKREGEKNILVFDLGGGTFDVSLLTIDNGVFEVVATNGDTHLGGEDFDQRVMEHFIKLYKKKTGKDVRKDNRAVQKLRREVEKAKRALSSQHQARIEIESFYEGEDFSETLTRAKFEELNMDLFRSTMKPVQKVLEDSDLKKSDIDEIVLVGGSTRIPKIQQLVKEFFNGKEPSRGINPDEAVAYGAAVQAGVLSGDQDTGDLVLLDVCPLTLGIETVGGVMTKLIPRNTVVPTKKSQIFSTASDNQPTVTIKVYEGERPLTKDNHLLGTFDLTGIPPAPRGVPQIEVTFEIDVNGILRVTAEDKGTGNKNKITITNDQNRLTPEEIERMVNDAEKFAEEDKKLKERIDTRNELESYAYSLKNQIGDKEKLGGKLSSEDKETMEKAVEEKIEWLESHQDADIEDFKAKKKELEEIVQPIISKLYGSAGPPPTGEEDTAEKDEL

Biological target: SBSPON ASP88Vla mutant, 3×Flag-tagged (human) (UniProt Q8IVN8)
Assay: co-IP; cell lysates immunoprecipitated with anti-Flag (SBSPON) or anti-Myc (HSPA5) antibodies, then immunoblotting; NP-40 lysates, protein A/G agarose beads

binding: binds
Substance: HSPA5 tagged with Myc (pcDNA3.1) (from UniProt P11021 19-654)
